The target in assay [1] is T1, p37 (major membrane protein of M. hyorhinis) (Mycoplasma hyorhinis) (UniProt P15363).
T1 sequence: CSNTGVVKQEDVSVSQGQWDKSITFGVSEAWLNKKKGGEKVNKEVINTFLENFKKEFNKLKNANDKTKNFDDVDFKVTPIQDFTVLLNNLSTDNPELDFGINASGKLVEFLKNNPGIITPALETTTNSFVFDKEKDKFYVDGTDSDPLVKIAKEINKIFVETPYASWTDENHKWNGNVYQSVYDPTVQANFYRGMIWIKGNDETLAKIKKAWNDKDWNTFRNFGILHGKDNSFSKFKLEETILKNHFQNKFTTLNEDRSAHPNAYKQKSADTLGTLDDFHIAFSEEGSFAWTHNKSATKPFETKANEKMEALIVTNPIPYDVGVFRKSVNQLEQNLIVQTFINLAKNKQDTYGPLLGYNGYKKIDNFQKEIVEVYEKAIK
Kind of assay: co-IP; competition in the same co-IP: 20 μM synthetic A2PP added to lysates of M. hyorhinis infected BGC823 or AGS cells precipitated with anti-ANXA2; only the binder purified.

Protein sequences, listed by entry. Tags and fused reporters are not part of them. Lines headed by an entry give the natural chain unless they say otherwise; changes in a name come on top.
UniProt P07355: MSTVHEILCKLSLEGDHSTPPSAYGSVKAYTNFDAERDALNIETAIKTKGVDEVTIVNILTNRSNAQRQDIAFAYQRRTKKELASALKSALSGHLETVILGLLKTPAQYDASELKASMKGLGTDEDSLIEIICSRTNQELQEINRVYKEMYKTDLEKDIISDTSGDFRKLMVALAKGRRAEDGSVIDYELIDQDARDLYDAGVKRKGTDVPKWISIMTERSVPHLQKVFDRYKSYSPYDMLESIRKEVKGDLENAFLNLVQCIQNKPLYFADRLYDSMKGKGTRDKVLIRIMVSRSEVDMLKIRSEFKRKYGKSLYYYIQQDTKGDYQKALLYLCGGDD

Assay [2] addresses T2, GST-p37 fusion protein (p37, major membrane protein of M. hyorhinis) (Mycoplasma hyorhinis) (UniProt P15363).
T2 sequence: T1 sequence
Kind of assay: ELISA; solid-phase binding assay: GST-p37 or GST coated on 96-well plates (carbonate buffer pH 9.6, 4°C overnight), biotin-A2PP at indicated concentrations added at RT for 2 hr, streptavidin-HRP, OD490; both purified.

The target of assay [3] is biotin-conjugated A2PP (N-terminal polypeptide of Annexin A2, 1st to 30th aa) (UniProt P07355). Kind of assay: pull-down; 100 ng GST-p37 or GST with 20 μM biotin-A2PP and streptavidin beads, 50 mM Tris-HCl pH 8.0, 150 mM NaCl, 0.5% NP-40, 0.5 mM DTT, 4°C overnight; Western blotting; both purified.
The target in assay [4] is Annexin A2 (ANXA2) (human (endogenous in BGC823 and AGS)) (UniProt P07355). Kind of assay: co-IP; lysates (500 μg) of M. hyorhinis infected BGC823 or AGS cells, 1 μg anti-ANXA2 plus protein G sepharose, 4°C overnight, with 20 μM A2PP or ConP; pre-immune IgG as control; Western blotting.

These are yes or no findings as the source states them, for the method shown. For some of these results: Binding seen in cells or lysates may run through a third protein. Some entries that bind do so weakly or less than the wild type. For some of these results: Sequences can lack the tags named with a protein.

For the molecule “A2PP (N-terminal polypeptide of Annexin A2, 1st to 30th aa) (from UniProt P07355 1-30)”, in assay [1], the binding result is recorded as “binds”.
Consider “biotin-conjugated A2PP (N-terminal polypeptide of Annexin A2, 1st to 30th aa) (from UniProt P07355 1-30)”, for which, in assay [2], the binding result is given as “binds”.

B1: GST-p37 fusion protein (p37, major membrane protein of M. hyorhinis) (protein, UniProt P15363 24-403)
chain: T1 sequence
In the case of B1, the binding result in assay [3] is reported as “binds”.

B2: p37 (major membrane protein of M. hyorhinis) (protein, UniProt P15363 24-403)
chain: T1 sequence
Turning to B2, the binding entry in assay [4] is “binds”.

(Values after publication PMC4727897.)
